Data as given in PubChem BioAssay AID686943 (Drosophila RNAi Screening Center, 2013).
In all, the deposit lists about 23,000 reagents; shown is a random part of those that have a named target and a result. 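Extra replicates exist only for a retested subset of genes; insulin dose and duration not given; both raised and lowered dpERK matter.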 Reagents against one gene are numbered here. A plus sign joins genes that one reagent is predicted to hit. Not all columns of the deposit are shown. The record does not give: the amount of reagent, the time to read-out.

Assay: 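Fly genes whose loss alters ERK activation after insulin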 (primary screen)
Cells: Drosophila S2R+ haemocyte-like cells expressing YFP-tagged ERK (Rolled)
Reagent: long dsRNA against Drosophila genes
Conditions: insulin stimulation versus unstimulated cells; dose and duration not given
Measured: 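Antibody staining for doubly phosphorylated ERK divided by ERK-YFP signal, as plate z-scores, in insulin-treated and untreated cells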
Scale: replicate 1, z-score of dpERK with insulin: higher = more active ERK per ERK-YFP after insulin

replicate 1, z-score of dpERK with insulin, by target gene and reagent
CG31279 (GeneID 318657): #1 -0.27
CG9864 (GeneID 37287): #1 -1.2
ClC-a (GeneID 41428): #1 0.04; #2 1.61; #3 -0.35
p115 (GeneID 31698): #1 -0.35
Rrp42 (GeneID 36766): #1 -0.52
Ccn (GeneID 39972): #1 0.38; #2 -4.89; #3 -0.09; #4 2.33

4 of these entries, set out differently:
ClC-a (GeneID 41428) #1 — replicate 1, z-score of dpERK with insulin: 0.04
ClC-a (GeneID 41428) #2 — replicate 1, z-score of dpERK with insulin: 1.61
ClC-a (GeneID 41428) #3 — replicate 1, z-score of dpERK with insulin: -0.35
p115 (GeneID 31698) — replicate 1, z-score of dpERK with insulin: -0.35

More entries follow.
replicate 1, z-score of dpERK with insulin, by target gene and reagent
Cpr62Ba (GeneID 38239): #1 -0.42
Atg8a (GeneID 32001): #1 1.94
park + Targ3: #1 0.28
nerfin-2 (GeneID 41235): #1 0.6
CG1924 (GeneID 32180): #1 0.56
CycC (GeneID 41801): #1 0.39
Gld2 (GeneID 42602): #1 -1.89
CG30472 (GeneID 246634): #1 0.89
Rim (GeneID 42150): #1 -0.45; #2 -2.23; #3 0.14; #4 0.51; #5 0.87
